Assay results reported in patent US20240343803A1.
Numbering of substitutions follows the chain as printed. Results are given in words; binding and its absence hold for the method and conditions named. Binding calls can cover weak binding; strength is not graded here.

Amino acid sequences for entries named in this document (tags omitted). A change or cut given only in a name is not applied to a line headed by its entry.
UniProt Q6DKI7: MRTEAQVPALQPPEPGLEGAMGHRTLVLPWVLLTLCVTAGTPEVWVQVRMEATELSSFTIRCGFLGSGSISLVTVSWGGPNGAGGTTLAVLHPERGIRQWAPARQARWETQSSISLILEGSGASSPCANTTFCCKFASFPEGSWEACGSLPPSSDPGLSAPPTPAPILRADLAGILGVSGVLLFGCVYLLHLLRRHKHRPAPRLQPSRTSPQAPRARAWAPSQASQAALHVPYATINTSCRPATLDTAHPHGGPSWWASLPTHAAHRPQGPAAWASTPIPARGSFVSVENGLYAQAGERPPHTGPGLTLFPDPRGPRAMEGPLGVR

Biological target: human PVRIG-his (AcroBiosystems, Cat NO. PVG-H52H4) (human) (UniProt Q6DKI7)
Assay: BIAcore

B1: PVRIG-A50-H1 (VHH)
VHH: EVQLVESGGGLVQPGGSLRLSCAASGFTFSYYDMSWVRQAPGKGLEWVSTINSNGGRTSYVDSVKGRFTISRDNSKNTLYLQMNSLRAEDTAVYYCVEGDPHNFGLENLSLRDFGSWGQGTMVTVSS
binding: binds

B2: PVRIG-A50-H1a (VHH)
VHH: B1 VHH with N54D
binding: binds

B3: PVRIG-A50-H1b (VHH)
VHH: B1 VHH with N54D, N108S
binding: binds

B4: PVRIG-A50-H1c (VHH)
VHH: B1 VHH with N54D, S110A
binding: binds

B5: PVRIG-A50-H1d (VHH)
VHH: B1 VHH with N108S
binding: binds

B6: PVRIG-A50-H1e (VHH)
VHH: B1 VHH with G55A, N108S
binding: binds

B7: PVRIG-A50-H2a (VHH)
VHH: B1 VHH with G55A, S75T, N108S
binding: binds

B8: PVRIG-A118-H1 (VHH)
VHH: EVQLVESGGGLVQPGGSLRLSCAASETYFDLYVMGWYRQAPGKDRELVATITYTGSIYYVDSVKGRFTISRDNAKNSLYLQMNSLRAEDTAVYYCNADPSGLGRKVYWGQGTMVTVSS
binding: binds

B9: PVRIG-A118-H2 (VHH)
VHH: B8 VHH with Y58K
binding: binds

B10: PVRIG-A118-H3 (VHH)
VHH: B8 VHH with Y58K, D72G, N73D
binding: binds

B11: PVRIG-A118-H4 (VHH)
VHH: B8 VHH with Y58K, D72G, N73D, Y79S
binding: binds

B12: PVRIG-A118-H5 (VHH)
VHH: B8 VHH with Y58K, D72G, N73D, L78V
binding: binds

B13: PVRIG-A118-H6 (VHH)
VHH: B8 VHH with Y58K, Y59I, D72G, N73D
binding: binds

B14: PVRIG-A118-H7 (VHH)
VHH: B8 VHH with Y58K, D72G, N73D, Y94F
binding: binds

B15: PVRIG-A105-H1 (VHH)
VHH: EVQLVESGGGLVQPGGSLRLSCAASGRTFDRHTMSWFRQAPGKEREFVATASRIPGDTYYVDSVKGRFTISRDNAKNSLYLQMNSLRAEDTAVYYCAATSAYCSEVDCYEKGSWYDNWGQGTMVTVSS
binding: binds

B16: PVRIG-A105-H2 (VHH)
VHH: B15 VHH with S35T
binding: binds

B17: PVRIG-A105-H3 (VHH)
VHH: B15 VHH with S35T, L79V
binding: binds

B18: PVRIG-A105-H4 (VHH)
VHH: B15 VHH with S35T, V61S, D62H
binding: binds

B19: PVRIG-A105-H5 (VHH)
VHH: B15 VHH with S35T, T122I, M123Q
binding: binds
